This test deals with BDF1 mice, P388 leukemia ip, median survival T/C. The test can be described thus: NCI In Vivo Anticancer Drug Screen. Data for tumor model P388 Leukemia (intraperitoneal) in B6D2F1 (BDF1) mice. As to conditions: T/C endpoint: median survival time, higher T/C = longer survival. Put shortly:
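Read-out is survival of treated animals expressed relative to the vehicle group, as a T/C ratio.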

Setting [1] is: dose: 25.0 mg/kg/injection, schedule: Q01DX009 (ip), vehicle: saline.
[2] abbreviates: dose: 50.0 mg/kg/injection, schedule: Q01DX009 (ip), vehicle: saline.
Where [3] appears, read: dose: 100.0 mg/kg/injection, schedule: Q01DX009 (ip), vehicle: saline with Tween-80.
Setting [4] is: dose: 100.0 mg/kg/injection, schedule: Q01DX009 (ip), vehicle: saline.
Setting [5] is: dose: 100.0 mg/kg/injection, schedule: Q01DX009 (ip), vehicle: Klucel (hydroxypropylcellulose) (HPC).

The record followed here is PubChem BioAssay AID328 (DTP/NCI, 2004).

The structures appear in SMILES notation. The list shows only some results of the screen, not a fair sample: it is rich in T/C values a quarter to a half above the control, in often repeated tests (any T/C) and in doses without a T/C. Other doses and runs of a compound stand elsewhere. T/C: endpoint of the treated group in % of that of the vehicle group. Some entries give survivors of the animals treated and no T/C: the source files T/C as zero there, which appears to mark a toxic dose or a test without result, not a measured value. Some doses without a T/C left all or most animals alive at the check, yet need not have been tolerated: survival well below the control is almost never listed, so the zero probably covers shortened survival too. Survivors were counted at the toxicity check, usually on the fifth day, unless a day is given; later deaths do not show. Schedules are NCI's codes, taken here to give the interval after Q, in days (D) or hours (H), and the number of doses after X. Some doses were run more than once; their values stand side by side, smallest first. Some molecules as drawn cover several salts, stereoisomers or complexes of the source; a dose is that of the sample tested. Marks such as (2×) say how often a value occurs here. For survival time, this PubChem deposit counts one and a half times the control or more as active, and values a quarter to a half above the control carry no call in these data; other NCI protocols may use other cut-offs. Some T/C values carry the count of animals alive at the toxicity check (mostly the fifth day); without a count, all were alive then.

For `CCCCCCCC[N+](C)(CCCCCCCC)CCCCCCCC`, the survivor count was 0 of 6 and 4 of 6 (dose: 3.25 mg/kg/injection, schedule: Q01DX001 (ip), vehicle: saline); 5 of 6 (dose: 4.0 mg/kg/injection, schedule: Q01DX009 (ip), vehicle: saline); 1 of 6 (dose: 4.6 mg/kg/injection, schedule: Q01DX009 (ip), vehicle: saline); 3 of 6 (dose: 6.5 mg/kg/injection, schedule: Q01DX001 (ip), vehicle: saline); 2 of 6 (dose: 7.0 mg/kg/injection, schedule: Q01DX009 (ip), vehicle: saline); 4 of 6 (dose: 9.3 mg/kg/injection, schedule: Q04DX003 (ip), vehicle: saline). Also, the survivor count (dose: 10.0 mg/kg/injection, schedule: Q01DX009 (ip), vehicle: saline) is reported as 1 of 6 and the survivor count (dose: 13.0 mg/kg/injection, schedule: Q01DX001 (ip), vehicle: saline) is 0 of 6.
For the molecule `CC1(COCCOCC2(C)CO2)CO1` (configuration not stated), the T/C (dose: 264.0 mg/kg/injection, schedule: Q01DX009 (ip), vehicle: saline) is 145 % of control.
As to `CN1CCN(CCCN2c3ccccc3Sc3ccc(C(F)(F)F)cc32)CC1`, the T/C by setting is: (dose: 18.75 mg/kg/injection, schedule: Q01DX009 (ip), vehicle: saline) 127 % of control; (dose: 37.5 mg/kg/injection, schedule: Q04DX003 (ip), vehicle: saline with Tween-80) 134 % of control; (dose: 37.5 mg/kg/injection, schedule: Q04DX003 (ip), vehicle: saline) 130 % of control; (dose: 66.0 mg/kg/injection, schedule: Q04DX003 (ip), vehicle: saline with Tween-80) 141 and 145 % of control; (dose: 75.0 mg/kg/injection, schedule: Q04DX003 (ip), vehicle: saline with Tween-80) 126 % of control; (dose: 100.0 mg/kg/injection, schedule: Q04DX003 (ip), vehicle: saline with Tween-80) 141 % of control. Besides, the survivor count reads like this: under setting [1], 6 of 6 (2×); (dose: 37.5 mg/kg/injection, schedule: Q01DX009 (ip), vehicle: saline) 5 of 7; under setting [2], 3 of 6 (2×); (dose: 67.0 mg/kg/injection, schedule: Q01DX009 (ip), vehicle: saline with Tween-80) 3 of 5; (dose: 75.0 mg/kg/injection, schedule: Q01DX009 (ip), vehicle: saline) 0 of 7; under setting [3], 0 of 6. The survivor count runs as follows: under setting [4], 1 of 6; (dose: 150.0 mg/kg/injection, schedule: Q04DX003 (ip), vehicle: saline with Tween-80) 1 of 6 and 4 of 6; (dose: 150.0 mg/kg/injection, schedule: Q04DX003 (ip), vehicle: saline) 2 of 6; (dose: 200.0 mg/kg/injection, schedule: Q04DX003 (ip), vehicle: saline with Tween-80) 3 of 6.
On to `CC(=O)[C@]1(O)Cc2c(O)c3c(c(O)c2[C@@H](OC2CC(N)C(O)C(C)O2)C1)C(=O)c1c(OC(C)C)cccc1C3=O` (some centres not stated), for which the T/C is, setting by setting: (dose: 3.13 mg/kg/injection, schedule: Q04DX003 (ip), vehicle: water) 126 % of control; (dose: 25.0 mg/kg/injection, schedule: Q04DX003 (ip), vehicle: water) 135 % of control.
As for `Cc1c(CNc2ccc(C(=O)NC(CC(=O)O)C(=O)O)cc2)ccc2nc(N)nc(N)c12` (configuration not stated), the survivor count under setting [1] is recorded as 5 of 6.
Take `COc1cccc2c1C(=O)c1c(O)c3c(c(O)c1C2=O)CC(O)(/C(C)=N/NC(=O)CCCCCCC(=O)N/N=C(\C)C1(O)Cc2c(O)c4c(c(O)c2C(OC2CC(N)C(O)C(C)O2)C1)C(=O)c1c(OC)cccc1C4=O)CC3OC1CC(N)C(O)C(C)O1` (configuration not stated): where the note is “dose: 8.0 mg/kg/injection, schedule: Q01DX009 (ip), vehicle: water”, the T/C is 149 % of control. Besides, the survivor count is on record as 6 of 6 (dose: 16.0 mg/kg/injection, schedule: Q01DX009 (ip), vehicle: water) and 6 of 6 (dose: 32.0 mg/kg/injection, schedule: Q01DX009 (ip), vehicle: water).
In the case of `N#Cc1ccc(NC(=O)N(CCCl)N=O)cc1`, the T/C by setting is: (dose: 0.68 mg/kg/injection, schedule: Q01DX009 (ip), vehicle: saline) 149 % of control; (dose: 0.75 mg/kg/injection, schedule: Q01DX009 (ip), vehicle: Klucel (hydroxypropylcellulose) (HPC)) 141 % of control; (dose: 1.5 mg/kg/injection, schedule: Q01DX009 (ip), vehicle: Klucel (hydroxypropylcellulose) (HPC)) 141 % of control. For the same molecule, the survivor count by setting is: (dose: 25.0 mg/kg/injection, schedule: Q01DX009 (ip), vehicle: Klucel (hydroxypropylcellulose) (HPC)) 6 of 6; under setting [1], 3 of 3; (dose: 50.0 mg/kg/injection, schedule: Q01DX009 (ip), vehicle: Klucel (hydroxypropylcellulose) (HPC)) 6 of 6; under setting [2], 3 of 3; (dose: 50.0 mg/kg/injection, schedule: Q04DX003 (ip), vehicle: Klucel (hydroxypropylcellulose) (HPC)) 6 of 6; under setting [5], 0 of 6. Moreover, the survivor count by setting is: under setting [4], 0 of 3; (dose: 100.0 mg/kg/injection, schedule: Q04DX003 (ip), vehicle: Klucel (hydroxypropylcellulose) (HPC)) 4 of 6; (dose: 200.0 mg/kg/injection, schedule: Q01DX009 (ip), vehicle: saline) 0 of 3; (dose: 200.0 mg/kg/injection, schedule: Q04DX003 (ip), vehicle: Klucel (hydroxypropylcellulose) (HPC)) 1 of 6; (dose: 400.0 mg/kg/injection, schedule: Q01DX009 (ip), vehicle: saline) 0 of 3; (dose: 400.0 mg/kg/injection, schedule: Q04DX003 (ip), vehicle: Klucel (hydroxypropylcellulose) (HPC)) 0 of 6.
Take `Cc1noc2nccnc12`: under setting [3], the survivor count is listed as 5 of 6.
Turning to `CN(C)C1CCc2ccccc2C1OC(=O)/C=C/c1ccccc1` (configuration not stated), the T/C is, setting by setting: (dose: 50.0 mg/kg/injection, schedule: Q01DX009 (ip), vehicle: saline with Tween-80) 125 % of control [5 of 6 alive]; under setting [3], 126 % of control. For the same molecule, the survivor count (dose: 200.0 mg/kg/injection, schedule: Q01DX009 (ip), vehicle: saline with Tween-80) is 1 of 6 and 3 of 6.
For `COC1C(/C=C/C(=O)CCl)OC2OC(C)(C)OC21` (configuration not stated), the survivor count reads like this: (dose: 50.0 mg/kg/injection, schedule: Q01DX005 (ip), vehicle: saline with Tween-80) 0 of 6; (dose: 100.0 mg/kg/injection, schedule: Q01DX005 (ip), vehicle: saline with Tween-80) 0 of 6; (dose: 200.0 mg/kg/injection, schedule: Q01DX005 (ip), vehicle: saline with Tween-80) 0 of 6.
`N#CSc1ccc(Nc2ccc(SC#N)cc2)cc1`: the T/C runs as follows: (dose: 55.0 mg/kg/injection, schedule: Q01DX009 (ip), vehicle: Klucel (hydroxypropylcellulose) (HPC)) 133 % of control; (dose: 80.0 mg/kg/injection, schedule: Q01DX009 (ip), vehicle: Klucel (hydroxypropylcellulose) (HPC)) 133 % of control.
With `Cc1c(Br)c(=O)n(-c2ccccc2)n1C`, the survivor count reads like this: under setting [5], 3 of 3; (dose: 200.0 mg/kg/injection, schedule: Q01DX009 (ip), vehicle: Klucel (hydroxypropylcellulose) (HPC)) 3 of 3.
